Some of the results follow.

By UniProt entry, the sequences of proteins in these tests, tags left out.
UniProt Q0JBA9, entry or part of it: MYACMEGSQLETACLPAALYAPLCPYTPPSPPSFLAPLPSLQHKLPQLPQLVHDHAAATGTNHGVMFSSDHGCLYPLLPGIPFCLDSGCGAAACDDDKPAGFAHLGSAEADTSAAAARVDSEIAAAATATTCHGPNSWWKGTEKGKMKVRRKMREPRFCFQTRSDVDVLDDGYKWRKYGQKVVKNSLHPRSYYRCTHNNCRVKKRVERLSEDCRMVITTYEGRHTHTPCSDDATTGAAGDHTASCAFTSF

For this assay, the target named is OsWRKY34 (Oryza sativa, UniProt Q0JBA9 1-250). Briefly: protein-binding microarray (RPBM); PBS, 2% BSA, 51.3 ng/ul salmon testes DNA, 50 uM zinc acetate, 200 nM TF, 25 C, 1 h; high values mean tight binding. Conditions: protein: recombinant; tags: N-terminal polyhistidine and DsRed monomer fusion (pET32a); label: CyDye5-dUTP incorporated in the synthesized complementary strand; 3' TTTTT single-stranded linker to array surface; dsDNA, one strand shown. An outline of the steps: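 A custom Agilent array was converted to double-stranded form by primer extension with Cy5-dUTP and blocked with 2% BSA. Protein at 200 nM in PBS with 2% BSA, salmon testes DNA and 50 µM zinc acetate was applied for 1 h at 25 °C, followed by washing. The proteins were polyhistidine–DsRed N-terminal fusions of transcription factors, expressed in E. coli BL21-CodonPlus and Ni–NTA-purified. The binding signal is per-feature fluorescence intensity (arbitrary units) from an Axon 4000B scanner.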
Regarding “GCTCGTTCATTCATTTTCTCTAAACCCCGATCATTATCCGCGGAGTCACCTAGTGCAG”, the binding signal was 9330 fluorescence intensity (a.u.).

In the case of “ACCCCTGCTTTATCCTCAACCTCATGCACAGGTAAATATCCGGAGTCACCTAGTGCAG”, the binding signal is 8310 fluorescence intensity (a.u.). The same measure for “AGTGGTAAAAGATCCTATATAGTGAAAAAAATAGACAGCGCGGAGTCACCTAGTGCAG”: 8160 fluorescence intensity (a.u.). The same measure for “GGAAGATTACCCTGTTTACCACTCACTGTACGATGATTATCGGAGTCACCTAGTGCAG”: 9260 fluorescence intensity (a.u.); for “CGCCCTATATATACAAACAACTCTTGCTTCCCACAATCTCCGGAGTCACCTAGTGCAG”: 8280 fluorescence intensity (a.u.).

Regarding “ATGCGTGACTTGTTTTTTTAATTTTTTTTTATATTTTTTTCGGAGTCACCTAGTGCAG”, the binding signal was 12000 fluorescence intensity (a.u.).

Regarding “AGCACCGTACATACCATATCCACCTCCAGTAGTCAAAGCACGGAGTCACCTAGTGCAG”, the binding signal was 8940 fluorescence intensity (a.u.).

“CACCTCAATCAGAAACATGGCATCGAACACTTGCGATATACGGAGTCACCTAGTGCAG”: the binding signal was 10000 fluorescence intensity (a.u.). The same measure for “CGTTCTTTCTCTCCCAGCCGTCGTTTCTGTTCTCCCTCTCCGGAGTCACCTAGTGCAG”: 9830 fluorescence intensity (a.u.); for “TCCTTCTTGTTGCCAATCTTTGAACTCAATATCTCTCGAGCGGAGTCACCTAGTGCAG”: 9540 fluorescence intensity (a.u.). As to “TTTCATGTTTTTTCACCCTTTTTCGTTATTACGAACGACGCGGAGTCACCTAGTGCAG”, the binding signal was 9110 fluorescence intensity (a.u.).

Consider “AGTTTTTGTTTTTATCTATATTTGATGCTCTATACATGTGCGGAGTCACCTAGTGCAG”, for which the binding signal was 8860 fluorescence intensity (a.u.). As for “CATCCTCTTCCACCTCTCGCGCTCACGCCATTTATACTCTCGGAGTCACCTAGTGCAG”, the figure is 11100 fluorescence intensity (a.u.). As for “TTTTGATTGCACCTTGCTTCTCGTATACACCCTCACCTATCGGAGTCACCTAGTGCAG”, the binding signal was 12600 fluorescence intensity (a.u.). As for “AAGCACCTTGGCGACGCATGTGGTCAACAAGCTCCTCGGCCGGAGTCACCTAGTGCAG”, the figure is 8050 fluorescence intensity (a.u.); as for “TCTGGTTTTGTAGTTTAGGGTTATGGTTTAGATTTCGATCCGGAGTCACCTAGTGCAG”, 10300 fluorescence intensity (a.u.). As for “ATGTTTTGGTTATGTGCATTTTAGCTATGCAGAGATAGAACGGAGTCACCTAGTGCAG”, the binding signal was 9030 fluorescence intensity (a.u.). As for “CTCCTCTTTGTGTGTAGACTGAAAAGGTGGAAAGTTTACCCGGAGTCACCTAGTGCAG”, the figure is 9750 fluorescence intensity (a.u.); as for “CCGACCGTTCTCCGGCAGCGCTTTGTACCGATTGTTGATACGGAGTCACCTAGTGCAG”, 9420 fluorescence intensity (a.u.). On to “GCCCCAACCTCGTCGCTACCCGCGAGCCTCGGCTTATCGACGGAGTCACCTAGTGCAG”, for which the binding signal is 65100 fluorescence intensity (a.u.). Regarding “CGCGTCCTCGAGCTCGGCTAATTAACGATACTTTTACTGACGGAGTCACCTAGTGCAG”, the binding signal is 9400 fluorescence intensity (a.u.).

For the sequence “CTTCTCCGGTCAAGCTTGGCTGCTTTGTCGAGATGTATAACGGAGTCACCTAGTGCAG”, the binding signal is 8040 fluorescence intensity (a.u.). For the sequence “ATTTATCTTTGGCCTTAATCTTGCTTCTCTTCTTTTTCACCGGAGTCACCTAGTGCAG”, the binding signal was 10100 fluorescence intensity (a.u.).

For the sequence “CATGAACACCACATGCATTTGTCCTGCATGTCAACTACTCCGGAGTCACCTAGTGCAG”, the binding signal is 10300 fluorescence intensity (a.u.).

As to “GGATCGACTATTTTACAGGTAACCTTATCGTTATTTTCTACGGAGTCACCTAGTGCAG”, the binding signal was 9900 fluorescence intensity (a.u.).

Take “TTTCATTTGTTCAGTCATGAATTGTTATTGCAATATATTCCGGAGTCACCTAGTGCAG”: the binding signal is 11100 fluorescence intensity (a.u.). The same measure for “GATCTGTACTTATGAATTTTATGGCTATTTATGGGTTGGTCGGAGTCACCTAGTGCAG”: 10400 fluorescence intensity (a.u.); for “GCATCCTTTTCATTGGCCTTTGCGTGTAATTTGGGGCATGCGGAGTCACCTAGTGCAG”: 9230 fluorescence intensity (a.u.). In the case of “CATATCCCTTTTCACCTTTTTGCCAGAATTAACATATTTCCGGAGTCACCTAGTGCAG”, the binding signal was 9840 fluorescence intensity (a.u.). Regarding “ACTTTTATTTTTCCGCTTTTAATTGCTACAACCTCCCGCGCGGAGTCACCTAGTGCAG”, the binding signal is 8810 fluorescence intensity (a.u.).

In the case of “TGCTAGAATCCGATTCGGCCACCTACTACATTGCTGAATTCGGAGTCACCTAGTGCAG”, the binding signal is 8790 fluorescence intensity (a.u.). As for “TTGCACACATTTTCCACCCACACAAATAATTAACTCCAAACGGAGTCACCTAGTGCAG”, the figure is 8450 fluorescence intensity (a.u.); as for “ATAGCAACCGACCTAGCCCGGCCCCACACGCTTCGCATCCCGGAGTCACCTAGTGCAG”, 8320 fluorescence intensity (a.u.). On to “TCAGAATCATGTTTTTTTTATTCCTCCGTTTTTTTTATTCCGGAGTCACCTAGTGCAG”, for which the binding signal was 8070 fluorescence intensity (a.u.). Take “TTTCTAGGTTTAAACTTGGATATATCTTGTGTTCATATTCCGGAGTCACCTAGTGCAG”: the binding signal is 8890 fluorescence intensity (a.u.). As for “GGTTGGGTTGGGCCATGTAAAATAAGGGTTACGATGGGCTCGGAGTCACCTAGTGCAG”, the figure is 9670 fluorescence intensity (a.u.); as for “AGTTGTATTTGTAATGTGAACTACCCTCTCCGTCCCAAAACGGAGTCACCTAGTGCAG”, 8110 fluorescence intensity (a.u.); as for “GTTCGATATCCCCGTGCAGAGGCAAGGCGGCGGGTCTCCCCGGAGTCACCTAGTGCAG”, 9860 fluorescence intensity (a.u.).

“GCTGCGTCGCTCGATTTGTTTGTCGTACCGTTGTCGCGATCGGAGTCACCTAGTGCAG”: the binding signal is 8820 fluorescence intensity (a.u.).

As to “TTTTGTATTTCCTCTCGTAGACTTTCTTTGGTCTTACATTCGGAGTCACCTAGTGCAG”, the binding signal was 8880 fluorescence intensity (a.u.). On to “CACTTTGGGTCCCTCTATTTTTCGCCCATTCCGATTTTCACGGAGTCACCTAGTGCAG”, for which the binding signal was 10300 fluorescence intensity (a.u.). “CACCACCACCCACCTCGTCTTCTTCTTCGCTAAGCCTAAACGGAGTCACCTAGTGCAG”: the binding signal was 8160 fluorescence intensity (a.u.).

Values taken from article PMC7819943, “Rice protein-binding microarrays: a tool to detect cis-acting elements near promoter regions in rice”.
